The assay is described as follows: qHTS Assay for Modulators of Lamin A Splicing. The following applies: HeLa LMNA splicing GFP/RFP minigene ratio, 48 h. The method in brief:
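S3 HeLa cells stably expressing lamin A-EGFP splicing minigene plus DsRed2, 600 cells/well, 48 h compound exposure at 37C. Laser-scanning cytometry; analysed as GFP (500-530 nm)/RFP (575-640 nm) total intensity ratio; 0.5% DMSO vehicle.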

Where [1] appears, read: measured here: RFP viability control channel.
The mark [2] stands for this setting: measured here: GFP splicing reporter channel.

The results in this text go back to PubChem BioAssay AID1487 (National Center for Advancing Translational Sciences (NCATS), 2009).

Values joined by “and” are separate entries in the source; they are usually repeats but may differ in a detail not shown here. Identical values can stand only once. Some of the results follow. Further columns of the screen follow, without active or inactive calls. Compounds called inactive in the main read-out are mostly missing here. Words in brackets tell the shape of the fitted curve; partial curves, single points and poor fits give uncertain potencies.

Broadly, the AC50 is the concentration giving half of the maximal activity seen. For the molecule `CCOc1ccc(C2C(=O)N(C3CCCCCC3)CC(=O)N2CCC2=CCCCC2)cc1OC` (stereo not given), the AC50 under setting [1] was 31.6 µM [rising, single point].

Turning to `Cc1cc(C)c2c(c1)/C(=N/NC(=O)c1ccc(O)cc1)CCC2`, the AC50 under setting [1] is 3.55 µM [rising, partial curve].

For the molecule `Cc1ccc(Cl)cc1N1CCN(Cc2nnnn2Cc2ccco2)CC1`, the AC50 was 10 µM [rising, partial curve] under setting [2] and 12.6 µM [rising, partial curve] under setting [1].

Take `CNc1ncnc2c1ncn2[C@@H]1O[C@H](CO)[C@H](O)[C@H]1O`: the AC50 under setting [1] is 0.00501 µM [falling, full curve, poor fit].

Turning to `COc1ccc2nc(N/C(N)=N/C(=S)Nc3cccc(C)c3)nc(C)c2c1`, the AC50 under setting [1] was 31.6 µM [rising, single point].

For the molecule `COc1ccc(CN2CCc3nc(Nc4ccccc4)ncc3C2)c(OC)c1OC`, under setting [2], the AC50 was 20 µM [falling, single point].

As for `CCOc1ccc2nc(N3CCC(C(=O)Nc4nnc(CC)s4)CC3)sc2c1`, the AC50 under setting [1] is 3.16 µM [rising, partial curve, poor fit].

For `Cc1cc(C)cc(NC(=O)C(=O)NCC(c2ccc3c(c2)OCO3)N2CCOCC2)c1` (stereo not given), the concentration at half-maximal activity (AC50) under setting [1] was 35.5 µM [rising, partial curve, poor fit].

`COc1ccc(Cl)cc1NC(=O)Nc1cccc([N+](=O)[O-])c1C`: the AC50 reads like this: under setting [2], 35.5 µM [rising, single point]; under setting [1], 35.5 µM [rising, single point].

Turning to `Cc1ccc(N2CC(NC(=O)c3ccc(S(=O)(=O)N4CCCC4)cc3)CC2=O)cc1` (stereo not given), the AC50 runs as follows: under setting [2], 0.0141 µM [falling, full curve, poor fit]; under setting [1], 5.01 µM [falling, full curve].

On to `Cc1ccccc1C1=NC(C(F)(F)F)(C(F)(F)F)c2c(n(-c3ccc(F)cc3)c(=O)[nH]c2=O)N1`, for which the half-maximal activity concentration (AC50) under setting [1] is 5.62 µM [falling, full curve].

In the case of `O=C(CCCc1ccccc1)Nc1nnc(C(F)(F)F)s1`, under setting [2], the AC50 was 20 µM [falling, partial curve].

As for `O=c1c2nccnc2[nH]c(=S)n1Cc1ccccc1Cl`, the AC50 under setting [1] is 0.0112 µM [falling, full curve, poor fit].

As to `CCOC(=O)c1c(NC(=O)CSc2n[nH]c(-c3ccco3)n2)sc(C)c1C`, the AC50 under setting [1] was 35.5 µM [rising, single point].

With `COc1ccc(CC(=O)N2CCC(c3ccccc3)C2)cc1` (stereo not given), the AC50 under setting [2] is 2.82 µM [rising, single point] and the AC50 under setting [1] is 0.00891 µM [rising, full curve, poor fit].

For the molecule `COc1cccc(/C=C/C(=O)c2cccc([N+](=O)[O-])c2)c1`, the AC50 runs as follows: under setting [2], 17.8 µM [falling, partial curve]; under setting [1], 17.8 µM [falling, partial curve].

As for `CCCCNS(=O)(=O)c1ccc(NC(=O)Cc2ccc(OC)cc2)cc1`, the AC50 under setting [2] is 0.0126 µM [falling, full curve, poor fit].

As for `O=C(COc1ccc([N+](=O)[O-])cc1)NCC1(N2CCOCC2)CCCCC1`, under setting [2], the AC50 is 39.8 µM [rising, single point].

With `COCCNc1ncnc2ccc(-c3ccccc3OC)cc12`, the AC50 was 11.2 µM [falling, partial curve, poor fit] under setting [2] and 17.8 µM [falling, single point] under setting [1].

As to `COc1ccc(NCc2nc3ccccc3n2CCOc2ccccc2)cc1`, the AC50 under setting [1] is 14.1 µM [rising, single point].

As for `Cc1cnc(CNc2ncnc3ccc(-c4c(C)noc4C)cc23)cn1`, the AC50 under setting [2] is 5.01 µM [falling, partial curve].

Take `Cc1cc(=O)[nH]c(/N=C(\N)Nc2ccc3c(c2)OCCO3)n1`: the AC50 runs as follows: under setting [2], 0.00708 µM [falling, full curve, poor fit]; under setting [1], 0.01 µM [falling, full curve, poor fit].

As for `CC(C)c1ccc(NC(=O)C2CCN(c3nc(-c4ccc(C(C)C)cc4)no3)CC2)cc1`, the AC50 under setting [1] is 3.55 µM [falling, single point].

In the case of `C/C(N)=C(/C#N)C(=O)COC(=O)c1cc(-c2ccc(Br)cc2)nc2ccccc12`, the AC50 under setting [2] was 0.0282 µM [falling, full curve].

Take `Cc1ccc(NC(=O)c2cn3c4c(ccc(Cl)c4c2=O)OC(C)C3)c(C)c1` (stereo not given): the AC50 under setting [2] was 10 µM [falling, partial curve].

With `COC(=O)[C@@]1(Cc2ccc(OC)cc2)[C@H]2c3cc(C(=O)N(C)C)[nH]c3C[C@H]2CN1C(=O)c1ccccc1`, under setting [1], the AC50 is 2.51 µM [falling, partial curve, poor fit].

On to `Cc1nc2sccn2c(=O)c1CCN1CCC(=C(c2ccc(F)cc2)c2ccc(F)cc2)CC1`, for which the AC50 runs as follows: under setting [2], 8.91 µM [falling, partial curve, poor fit] and 35.5 µM [rising, single point]; under setting [1], 8.91 µM [falling, partial curve, poor fit] and 35.5 µM [falling, single point].

For `COc1ccc(/C=N/c2oc(-c3ccccc3)cc2C#N)cc1`, the AC50 under setting [1] is 11.2 µM [rising, partial curve].

In the case of `O=C1c2ccccc2OC2(C=Cc3ccccc3O2)N1Cc1ccccc1` (stereo not given), the AC50 under setting [2] was 17.8 µM [falling, single point].

Regarding `COc1cc(NC(=O)Cn2ncc(Cl)c(Cl)c2=O)c(C)cc1[N+](=O)[O-]`, under setting [1], the AC50 is 35.5 µM [rising, single point].

On to `COc1ccccc1/C=C(/CC(=O)NCc1ccc(F)cc1)c1nc2ccccc2s1`, for which the AC50 is, setting by setting: under setting [2], 11.2 µM [rising, partial curve]; under setting [1], 17.8 µM [rising, single point].

Turning to `Nc1nnc(SCC(=O)Nc2ccc3nc(SCC(=O)Nc4ccccc4)sc3c2)s1`, the AC50 under setting [1] was 0.794 µM [rising, full curve, poor fit].

In the case of `CCOC(=O)c1cc(C#N)c(N2CCCC2)nc1-c1ccccc1`, the AC50 under setting [2] is 12.6 µM [rising, single point] and the AC50 under setting [1] was 14.1 µM [rising, single point].

As to `CC(=O)c1ccc(NC(=O)C(C)n2nc(-c3ccccc3)c3cc(Cl)ccc32)cc1` (stereo not given), the AC50 under setting [1] was 22.4 µM [rising, single point].

Take `CCCCCCCCN=C1NC(=O)CS1`: the AC50 under setting [1] is 3.98 µM [falling, partial curve].

With `CC(=O)c1ccc(Oc2cc(C)nc(NCc3ccccc3)n2)cc1`, the AC50 under setting [2] is 12.6 µM [rising, single point] and the AC50 under setting [1] is 15.8 µM [rising, single point].

Turning to `CC(=O)[C@H]1CC[C@H]2[C@@H]3C=CC4=CC(=O)CC[C@@]4(C)[C@H]3CC[C@]12C`, the AC50 under setting [2] is 14.1 µM [rising, single point].

In the case of `Cc1ccc2[nH]c3c(c2c1)CCNC3=O`, the AC50 under setting [1] is 35.5 µM [falling, single point].

As to `O=C(COC(=O)C1CC(=O)N(Cc2ccccc2)C1)Nc1ccc(Cl)cc1F` (stereo not given), the AC50 under setting [2] was 0.0316 µM [falling, full curve, poor fit].

For the molecule `Clc1ccccc1Nc1c2c(nc3ncnn13)CCC2`, the AC50 is, setting by setting: under setting [2], 14.1 µM [rising, single point]; under setting [1], 35.5 µM [rising, single point].

As to `CC(C)(C)NC(=S)NNC(=O)c1cccc(Br)c1`, the AC50 under setting [2] was 6.31 µM [rising, partial curve].

Consider `O=C(NC1(C(F)(F)F)N=C(c2ccccc2)NC1=O)c1ccc(Cl)cc1Cl` (stereo not given), for which the AC50 under setting [2] is 11.2 µM [rising, partial curve, poor fit] and the AC50 under setting [1] was 15.8 µM [rising, single point].

For `CCOC(=O)c1sc(NC(=O)c2ccc(S(=O)(=O)N3CCCCCC3)cc2)nc1-c1ccccc1`, the AC50 under setting [2] was 10 µM [rising, single point] and the AC50 under setting [1] was 12.6 µM [rising, partial curve].

Turning to `Cc1ccc(C(=O)CC(=O)c2cc(Cl)ccc2O)cc1`, the AC50 under setting [1] is 11.2 µM [rising, partial curve].

In the case of `COc1ccccc1NC(=O)COC(=O)C12CC3CC(CC(Cl)(C3)C1)C2`, the AC50 under setting [1] is 0.0447 µM [falling, full curve, poor fit].

For the molecule `Cc1[nH]n(-c2ccccc2)c(=O)c1N=Nc1nccs1`, the AC50 under setting [1] is 2.24 µM [rising, full curve].

Take `CCOC(=O)C(C)(C)N(Cc1cccc(C)c1)S(=O)(=O)c1cccc([N+](=O)[O-])c1`: the AC50 under setting [1] was 3.16 µM [rising, full curve, poor fit].

With `COc1ccc(C2CC(c3ccccc3)=NN2C(=O)COC(=O)c2cccc(S(=O)(=O)N(C)C)c2)cc1` (stereo not given), the AC50 under setting [1] was 14.1 µM [rising, single point].

For `Cc1cn2c(=O)cc(COC(=O)c3cccc(NC(=O)COc4ccccc4)c3)nc2s1`, under setting [1], the AC50 is 0.00447 µM [falling, full curve, poor fit].

Regarding `CN(C)c1ccc(C(C(=O)NC(C)(C)C)N(C(=O)c2csnn2)C2CC2)cc1` (stereo not given), under setting [1], the AC50 was 22.4 µM [rising, partial curve].

Regarding `O=C1c2c(O)ccc(O)c2C(=O)c2c(NCCNCCO)ccc(NCCNCCO)c21`, the AC50 reads like this: under setting [2], 11.2 µM [rising, partial curve] and 2.51 µM [falling, full curve]; under setting [1], 70.8 nM [rising, full curve, poor fit] and 6.31 µM [falling, partial curve].

With `Cc1cc(N2CCN(S(=O)(=O)c3ccccc3)CC2)c2ccccc2n1`, under setting [1], the AC50 is 11.2 µM [rising, single point].

On to `CCOc1ccc(N2C(=O)CC(N(CCc3ccc(OC)c(OC)c3)C(=S)Nc3ccccc3)C2=O)cc1` (stereo not given), for which, under setting [1], the AC50 is 0.1 µM [rising, full curve, poor fit].

For `Cc1ccc(C(=O)NNC(=S)NC(=O)c2ccco2)cc1`, under setting [1], the concentration at half-maximal activity (AC50) was 11.2 µM [rising, single point].

Consider `CN1CCN(S(=O)(=O)c2ccc(SCCOc3ccccc3)nc2)CC1`, for which the AC50 under setting [1] is 8.91 µM [rising, partial curve, poor fit].
